According to patent publication US20050038112A1, “Simplified sarcondictyn derivatives as anti-tumor agents” (priority 2001, published 2005):
At least one compound was matched to its structure with a doubt left.

By UniProt entry, the sequences of proteins in these tests, tags left out.
UniProt P02554, whole entry: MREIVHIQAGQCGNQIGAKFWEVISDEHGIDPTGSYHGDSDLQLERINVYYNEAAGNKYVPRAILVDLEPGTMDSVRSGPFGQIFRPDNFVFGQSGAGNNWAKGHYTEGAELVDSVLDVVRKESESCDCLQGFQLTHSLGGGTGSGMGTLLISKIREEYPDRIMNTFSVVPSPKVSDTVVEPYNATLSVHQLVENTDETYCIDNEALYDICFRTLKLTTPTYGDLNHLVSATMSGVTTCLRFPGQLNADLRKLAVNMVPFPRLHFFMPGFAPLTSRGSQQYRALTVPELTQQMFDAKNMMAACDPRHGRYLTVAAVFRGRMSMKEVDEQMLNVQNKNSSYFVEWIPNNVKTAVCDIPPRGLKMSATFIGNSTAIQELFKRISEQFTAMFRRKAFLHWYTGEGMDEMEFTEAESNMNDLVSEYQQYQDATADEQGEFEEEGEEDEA

Biological target: T1, Pig brain tubulin (Sus scrofa, UniProt P02554)
T1 construct: Pig brain tubulin was prepared by two cycles of assembly and disassembly; from tissue; host or cells: pig brain
Test: Microtubule assembly and disassembly assay (tubulin polymerizing activity)
Format: biochemical
Details: effective dose that induces 90% tubulin polymerisation; 0.5 mg/ml tubulin, 37° C., turbidity at 340 nm
Description: Pig brain tubulin was prepared by two cycles of assembly and disassembly and it was stored in liquid nitrogen in Microtubule Assembly Buffer (MAB: 0.1 M MES, 2.5 mM EGTA, 0.5 mM MgSO4, 0.1 mM EDTA, 0.1 mM DTT pH 6.4). Assembly was monitored by the method of Gaskin et al. (Gaskin F, Cantor C R, Shelanski M L, 1974,: Turbidimetric studies of the in vitro assembly and disassembly of porcine neurotubules. J. Mol. Biol. 89: 737-758). The cuvette (1 cm path) containing 0.5 mg/ml tubulin and 1 mM GTP was shifted to 37° C. and continuous turbidity measurements were made at 340 nm on a spectrophotometer equipped with an automatic recorder and a thermostatically regulated sample chamber. After 30 min CaCl2 (5 mM) was added and disassembly was monitored for 10 mm as decreased turbidity. Scalar doses of test compounds were monitored at regular intervals of 15 min.
(ED50 and ED90) was calculated on this curve.

CO[C@H]1C=CC[C@@H](OC(=O)/C=C/c2cn(C)cn2)C[C@H]2C(C)=CC[C@H](C(C)C)[C@H]2C[C@@H]1OC(=O)C(C)(C)C [Example 27, (E)-3-(1-Methyl-1H-imidazol-4-yl)-acrylic acid [(1R,4aR,6R,10S,11S,12aR)-11-(2,2-dimethyl-propionyloxy)-1-isopropyl-10-methoxy-4-methyl-1,2,4a,5,6,7,10,11,12,12a-decahydro-benzocyclodecen-6-yl}ester]
ED90: 7.0 µM
